Some of the results follow. Small differences around the control level are noise.

By UniProt entry, the sequences of proteins in these tests, tags left out. Where a name states a change or a piece, a line headed by the entry shows the natural chain unless it says otherwise.
UniProt Q9CR00: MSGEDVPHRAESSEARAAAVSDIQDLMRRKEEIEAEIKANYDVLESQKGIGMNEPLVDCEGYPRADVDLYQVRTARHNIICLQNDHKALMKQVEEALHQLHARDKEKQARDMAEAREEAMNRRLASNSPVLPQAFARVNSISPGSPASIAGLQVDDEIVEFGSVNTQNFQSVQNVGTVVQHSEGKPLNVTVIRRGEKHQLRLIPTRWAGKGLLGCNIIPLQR
UniProt Q99P25: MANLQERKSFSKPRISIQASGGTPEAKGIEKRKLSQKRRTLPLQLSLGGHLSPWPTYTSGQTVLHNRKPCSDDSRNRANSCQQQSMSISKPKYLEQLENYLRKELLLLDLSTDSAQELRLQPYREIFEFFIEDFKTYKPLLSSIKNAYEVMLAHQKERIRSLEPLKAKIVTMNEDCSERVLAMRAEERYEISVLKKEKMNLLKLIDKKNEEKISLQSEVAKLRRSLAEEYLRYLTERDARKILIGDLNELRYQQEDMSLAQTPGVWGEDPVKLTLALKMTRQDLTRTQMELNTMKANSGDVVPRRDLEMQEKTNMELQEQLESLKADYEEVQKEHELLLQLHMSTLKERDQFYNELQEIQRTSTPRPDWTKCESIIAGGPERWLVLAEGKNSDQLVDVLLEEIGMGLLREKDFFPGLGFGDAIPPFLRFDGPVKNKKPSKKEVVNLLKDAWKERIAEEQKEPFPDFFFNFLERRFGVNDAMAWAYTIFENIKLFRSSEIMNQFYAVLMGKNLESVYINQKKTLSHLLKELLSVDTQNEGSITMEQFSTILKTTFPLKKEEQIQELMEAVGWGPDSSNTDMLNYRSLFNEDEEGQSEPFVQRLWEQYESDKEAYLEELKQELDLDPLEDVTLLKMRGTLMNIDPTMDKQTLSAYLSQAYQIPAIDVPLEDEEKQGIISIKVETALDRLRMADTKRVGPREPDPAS
UniProt Q99N84, whole entry: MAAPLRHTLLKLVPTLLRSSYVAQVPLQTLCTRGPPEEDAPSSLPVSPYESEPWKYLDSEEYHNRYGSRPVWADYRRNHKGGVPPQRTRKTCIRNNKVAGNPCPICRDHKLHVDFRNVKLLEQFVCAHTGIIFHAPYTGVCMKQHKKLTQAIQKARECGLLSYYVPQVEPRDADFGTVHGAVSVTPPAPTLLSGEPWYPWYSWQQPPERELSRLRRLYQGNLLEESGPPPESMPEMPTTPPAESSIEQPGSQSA
UniProt Q99PP7: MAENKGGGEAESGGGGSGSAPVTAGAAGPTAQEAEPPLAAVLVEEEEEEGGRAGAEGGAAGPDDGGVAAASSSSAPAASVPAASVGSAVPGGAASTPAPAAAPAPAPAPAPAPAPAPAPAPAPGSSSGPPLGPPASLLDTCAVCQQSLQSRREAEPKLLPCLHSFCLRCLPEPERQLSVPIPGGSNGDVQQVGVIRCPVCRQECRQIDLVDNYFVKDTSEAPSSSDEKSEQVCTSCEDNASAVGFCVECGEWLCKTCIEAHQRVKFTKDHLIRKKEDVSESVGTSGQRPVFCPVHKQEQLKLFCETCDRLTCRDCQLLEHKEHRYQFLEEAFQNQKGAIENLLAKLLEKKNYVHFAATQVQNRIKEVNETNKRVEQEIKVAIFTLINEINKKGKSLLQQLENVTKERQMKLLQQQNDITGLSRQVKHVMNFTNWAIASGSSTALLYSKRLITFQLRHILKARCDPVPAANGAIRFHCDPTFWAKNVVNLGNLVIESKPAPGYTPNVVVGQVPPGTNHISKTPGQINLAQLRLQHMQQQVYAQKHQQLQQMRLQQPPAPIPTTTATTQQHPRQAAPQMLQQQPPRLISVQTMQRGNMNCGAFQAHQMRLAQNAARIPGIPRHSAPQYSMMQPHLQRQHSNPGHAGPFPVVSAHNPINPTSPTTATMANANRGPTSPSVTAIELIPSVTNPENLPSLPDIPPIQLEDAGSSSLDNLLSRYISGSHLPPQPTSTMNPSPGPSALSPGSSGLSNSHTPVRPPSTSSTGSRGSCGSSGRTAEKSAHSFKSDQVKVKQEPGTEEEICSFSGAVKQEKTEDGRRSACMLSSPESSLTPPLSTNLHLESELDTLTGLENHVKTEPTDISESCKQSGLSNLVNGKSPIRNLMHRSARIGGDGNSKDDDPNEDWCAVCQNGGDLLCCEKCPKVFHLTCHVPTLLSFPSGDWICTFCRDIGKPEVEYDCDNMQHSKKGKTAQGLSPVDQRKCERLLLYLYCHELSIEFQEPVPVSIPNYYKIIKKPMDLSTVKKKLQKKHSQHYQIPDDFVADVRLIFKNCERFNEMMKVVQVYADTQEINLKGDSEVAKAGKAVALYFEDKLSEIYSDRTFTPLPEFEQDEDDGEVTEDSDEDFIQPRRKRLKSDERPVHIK
UniProt Q99N93, whole entry: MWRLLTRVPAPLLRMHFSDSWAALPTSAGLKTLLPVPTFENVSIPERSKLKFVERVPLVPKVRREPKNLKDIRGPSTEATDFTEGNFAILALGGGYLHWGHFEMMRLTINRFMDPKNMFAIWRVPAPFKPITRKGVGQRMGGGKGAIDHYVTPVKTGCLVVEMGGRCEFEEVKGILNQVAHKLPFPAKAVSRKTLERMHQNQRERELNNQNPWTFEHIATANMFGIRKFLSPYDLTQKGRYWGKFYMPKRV
UniProt Q9CQ60: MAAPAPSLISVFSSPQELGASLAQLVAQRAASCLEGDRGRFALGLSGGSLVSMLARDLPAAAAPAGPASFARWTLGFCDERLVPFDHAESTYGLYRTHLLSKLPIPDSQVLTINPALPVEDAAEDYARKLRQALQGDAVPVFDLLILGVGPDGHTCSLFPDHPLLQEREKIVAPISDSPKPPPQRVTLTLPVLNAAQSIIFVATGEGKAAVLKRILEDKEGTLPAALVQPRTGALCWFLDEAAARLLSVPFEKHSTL
UniProt Q9CQ79: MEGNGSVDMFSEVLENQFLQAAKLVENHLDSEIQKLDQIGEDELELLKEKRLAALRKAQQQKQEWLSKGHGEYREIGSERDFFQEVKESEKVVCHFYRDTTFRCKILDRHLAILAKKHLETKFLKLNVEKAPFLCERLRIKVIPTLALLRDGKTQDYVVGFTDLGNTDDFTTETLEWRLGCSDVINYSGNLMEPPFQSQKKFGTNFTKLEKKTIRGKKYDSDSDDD
UniProt Q9CQ26: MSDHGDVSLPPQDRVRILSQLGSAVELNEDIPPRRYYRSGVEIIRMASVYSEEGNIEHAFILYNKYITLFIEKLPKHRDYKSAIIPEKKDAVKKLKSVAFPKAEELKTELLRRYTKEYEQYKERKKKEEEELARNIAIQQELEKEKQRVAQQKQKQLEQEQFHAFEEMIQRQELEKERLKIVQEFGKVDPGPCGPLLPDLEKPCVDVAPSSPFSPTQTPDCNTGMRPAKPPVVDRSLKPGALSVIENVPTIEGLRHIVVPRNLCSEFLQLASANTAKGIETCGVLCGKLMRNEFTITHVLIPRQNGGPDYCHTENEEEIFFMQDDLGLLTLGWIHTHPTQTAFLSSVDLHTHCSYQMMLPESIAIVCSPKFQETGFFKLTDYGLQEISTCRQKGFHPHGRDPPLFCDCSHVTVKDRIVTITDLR
UniProt Q99N87, whole entry: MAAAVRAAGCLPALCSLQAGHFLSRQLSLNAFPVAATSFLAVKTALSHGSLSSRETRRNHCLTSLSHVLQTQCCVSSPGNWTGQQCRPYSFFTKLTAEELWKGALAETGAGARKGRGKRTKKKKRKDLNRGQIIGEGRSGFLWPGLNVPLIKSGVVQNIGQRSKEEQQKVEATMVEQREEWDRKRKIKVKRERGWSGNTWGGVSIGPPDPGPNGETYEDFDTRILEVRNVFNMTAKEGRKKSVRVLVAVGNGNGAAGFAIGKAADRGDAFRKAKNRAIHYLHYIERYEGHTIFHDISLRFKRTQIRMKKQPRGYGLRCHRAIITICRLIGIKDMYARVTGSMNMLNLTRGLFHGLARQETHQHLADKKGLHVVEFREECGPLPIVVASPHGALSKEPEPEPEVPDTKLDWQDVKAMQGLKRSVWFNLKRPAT
UniProt Q9CPS6: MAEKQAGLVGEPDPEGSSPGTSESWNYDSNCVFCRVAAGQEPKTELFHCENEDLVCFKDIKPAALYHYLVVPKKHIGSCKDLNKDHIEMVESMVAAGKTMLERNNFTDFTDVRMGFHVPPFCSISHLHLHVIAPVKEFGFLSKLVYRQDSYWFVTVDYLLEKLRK
UniProt Q99LJ0: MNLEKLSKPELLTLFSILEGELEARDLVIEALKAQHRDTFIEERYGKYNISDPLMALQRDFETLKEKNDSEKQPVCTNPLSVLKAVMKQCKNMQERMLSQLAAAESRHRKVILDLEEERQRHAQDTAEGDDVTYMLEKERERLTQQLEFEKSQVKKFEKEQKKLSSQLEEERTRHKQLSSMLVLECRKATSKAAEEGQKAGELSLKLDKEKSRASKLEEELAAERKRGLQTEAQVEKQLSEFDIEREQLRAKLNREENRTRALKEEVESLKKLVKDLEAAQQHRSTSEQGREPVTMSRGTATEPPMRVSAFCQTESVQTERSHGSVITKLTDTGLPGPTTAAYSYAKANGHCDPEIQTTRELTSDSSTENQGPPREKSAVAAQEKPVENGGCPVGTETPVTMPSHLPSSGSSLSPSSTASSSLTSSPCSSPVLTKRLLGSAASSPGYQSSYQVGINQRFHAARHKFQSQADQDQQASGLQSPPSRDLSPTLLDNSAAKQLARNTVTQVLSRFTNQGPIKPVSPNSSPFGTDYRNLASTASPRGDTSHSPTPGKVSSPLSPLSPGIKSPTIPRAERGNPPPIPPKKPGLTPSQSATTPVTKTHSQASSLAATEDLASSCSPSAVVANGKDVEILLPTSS

Compound in the experiment: CN[C@@H]1C[C@H]2O[C@@](C)([C@@H]1OC)n1c3ccccc3c3c4c(c5c6ccccc6n2c5c31)C(=O)NC4 [staurosporine]
As to the kind of experiment: log2 fold change of tryptic peptide abundance, ligand vs vehicle (limited proteolysis) (log2 ratio); higher = more trypsin-susceptible (destabilized). The conditions noted are these: ligand concentration: 20 uM; sample: mouse liver crude lysate; replicate design: treated separately.
As to “UniProt Q9CR00 (peptide sequence: RKEEIEAEIK, peptide start residue: 29)”, the log2 fold change amounted to 0.131.

Regarding “UniProt Q99P25 (peptide sequence: ERIAEEQK, peptide start residue: 453)”, the log2 fold change is -0.085.

As to “UniProt Q99N84 (peptide sequence: VAGNPCPICR, peptide start residue: 98)”, the log2 fold change was 0.106.

Take “UniProt Q99PP7 (peptide sequence: CDPVPAANGAIR, peptide start residue: 463)”: the log2 fold change came to 0.324.

In the case of “UniProt Q99N93 (peptide sequence: NMFAIWRVPAPFKPITR, peptide start residue: 117)”, the log2 fold change was -0.795.

“UniProt Q9CQ60 (peptide sequence: AASCLEGDR, peptide start residue: 30)”: the log2 fold change was -0.442.

Take “UniProt Q9CQ79 (peptide sequence: VVCHFYR, peptide start residue: 92)”: the log2 fold change was -0.521.

Consider “UniProt Q9CQ26 (peptide sequence: NIAIQQELEKEK, peptide start residue: 135)”, for which the log2 fold change was -0.186.

On to “UniProt Q99N87 (peptide sequence: DLNRGQIIGEGR, peptide start residue: 127)”, for which the log2 fold change is -0.44.

Turning to “UniProt Q9CPS6 (peptide sequence: MGFHVPPFCSISHLHLHVIAPVK, peptide start residue: 114)”, the log2 fold change was -0.507.

Regarding “UniProt Q99LJ0 (peptide sequence: STSEQGREPVTMSR, peptide start residue: 285)”, the log2 fold change was -0.579.

The values are drawn from the supplement of paper PMC12819154, “High-throughput peptide-centric local stability assay extends protein–ligand identification to membrane proteins, tissues and bacteria” (Nature Structural & Molecular Biology, 2025).
